# PubChem BioAssay AID504834 (National Center for Advancing Translational Sciences (NCATS), 2011)
# The whole screen tested about 320,000 compounds, of which about 22,000 (6.9%) were called active. Inconclusive means that the source gave no clear call. Such entries were picked first, then a sample of the others. Calls come from the whole dose curve; as a rule, active = well fitted inhibition curve with a large enough effect; inconclusive = small, poorly fitted or top-dose-only effect, or another doubt; inactive = no such curve, though single readings can be large or run the other way. Where the call is inconclusive, the potency comes from a doubtful curve fit.
# Assay: Primary qHTS for delayed death inhibitors of the malarial parasite plastid, 96 hour incubation
# Settings: P. falciparum luciferase reporter growth; series mostly up to 28.7 µM
# Outline: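 Compounds incubated with erythrocytes infected by luciferase-expressing P. falciparum (2% hematocrit, 0.05% parasitemia final) for 96 hours, 37 C in 5% CO2. Growth inhibition scored as decreased luciferase luminescence.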
# % is set by controls: 0 for no effect and ±100 for the full control effect; potency is the fitted concentration of half-maximal effect.
Structure (SMILES),Potency,"activity change, negative = inhibition"
Cc1noc(C)c1COC(=O)/C=C/c1ccc(Cl)cc1,"inconclusive: 1.47 µM [inhibitor, partial curve, poor fit]",
C/C(=N\NC(=O)c1cccc(S(=O)(=O)Nc2ccc(C)cc2C)c1)c1ccncc1,"inconclusive: 18.5 µM [inhibitor, single point]",
CC(=O)Nc1ccc(NC(=O)CSc2nc3nc(-c4cccs4)cc(C(F)(F)F)c3c(=O)[nH]2)cc1,"inconclusive: 14.7 µM [inhibitor, partial curve, poor fit]",
COc1cccc(NC(=O)Nc2cc(C)ccc2OC)c1,inactive,
CN(C)S(=O)(=O)c1ccc(C(=O)NC2CCCc3ccccc32)cc1 (stereo unspecified),"inconclusive: 18.5 µM [inhibitor, single point]",
Cc1cc(=O)oc2cc(NC(=O)c3cc([N+](=O)[O-])ccc3N3CCOCC3)ccc12,"inconclusive: 0.104 µM [inhibitor, full curve, poor fit]",
CC1CC(C)CN(C(=O)Cn2c(=O)oc3cc(S(=O)(=O)N4CCCC4)ccc32)C1 (stereo unspecified),active: 11.7 µM,
CC(c1ccco1)N(C(=O)C12CC3CC(CC(C)(C3)C1)C2)c1ccccn1 (stereo unspecified),,inactive: 0.241% [at 5.75 µM]
CCCC(=O)Nc1nc2nc(-c3ccccc3)cc(-c3ccccc3)n2n1,"inconclusive: 0.233 µM [inhibitor, full curve, poor fit]",
Cc1onc(-c2ccccc2)c1C(=O)N1CCCCCC1,"inconclusive: 16.5 µM [inhibitor, partial curve, poor fit]",
COC(=O)C(c1ccccc1)C1CCCCN1 (stereo unspecified),"inconclusive: 2.69 µM [inhibitor, partial curve, poor fit]",
CCOc1ccc(CCNC(=O)c2cccc(-n3cnnn3)c2)cc1OCC,"inconclusive: 18.5 µM [inhibitor, single point]",
Cc1ccc(CNC(=O)C2CCN(S(=O)(=O)c3cccs3)CC2)cc1,inactive,
O=C(O)c1ccc(/C=C2\SC(=S)N(NC(=O)c3ccccc3[N+](=O)[O-])C2=O)cc1,"inconclusive: 16.5 µM [inhibitor, single point]",
CC1Oc2ccccc2N(CC(=O)NCc2ccccc2)C1=O (stereo unspecified),"inconclusive: 0.928 µM [inhibitor, full curve, poor fit]",
Cc1ccccc1Nc1nc(-c2ccccc2)c(C(=O)Nc2cccnc2)s1,"inconclusive: 18.5 µM [inhibitor, single point]",
O=C(Nc1ccc(N2CCCCC2)cc1)c1cccnc1Cl,"inconclusive: 18.5 µM [inhibitor, single point]",
Cc1ccc(S(=O)(=O)NC(C)(C)CSc2nncn2C)cc1,inactive,
COC(=O)c1c(NC(C)=O)sc(Cc2ccccc2)c1C,"inconclusive: 3.29 µM [inhibitor, single point]",
COc1ccccc1N1CCN(Cc2cccs2)CC1,"inconclusive: 18.5 µM [inhibitor, single point]",
O=C(c1ccco1)N1CCN(c2c([N+](=O)[O-])nn(-c3cccc(Cl)c3)[n+]2[O-])CC1,"inconclusive: 3.7 µM [inhibitor, partial curve, poor fit]",
CCOc1ccc(NC(=O)C(Cc2ccccc2)NC(=O)C2CCCCC2)cc1 (stereo unspecified),inactive,

Structure (SMILES),Potency,"activity change, negative = inhibition"
COC(=O)C1=CN(c2ccc(Cl)cc2)C=C(C(=O)OC)C1c1ccc([N+](=O)[O-])cc1,active: 5.22 µM,
C/C(=N\NC(=O)c1ccccc1NC(=O)c1ccc(Cl)cc1)c1ccncc1,"inconclusive: 0.522 µM [inhibitor, full curve, poor fit]",
CCc1ccc(-c2cc(C(=O)NCc3ccco3)c3ccccc3n2)s1,"inconclusive: 5.22 µM [inhibitor, partial curve, poor fit]",
COC(=O)C1=C(C)NC(C)=C(C(=O)OC)C1C(=O)OCc1nnc(-c2ccccc2Cl)o1,"inconclusive: 10.4 µM [inhibitor, single point]",
COC(=O)C1=C(c2cccc(OCc3ccccc3)c2)C[C@@H]2CC[C@H]1N2C(=O)NCCCOC(C)C,"inconclusive: 14.7 µM [inhibitor, partial curve, poor fit]",
CCOC(=O)Cc1c(Sc2ccccc2)c2ccccc2n1C,"inconclusive: 16.5 µM [inhibitor, single point]",
Cc1ccc(C)c(N2CCN(S(=O)(=O)c3cccc4cccnc34)CC2)c1,"inconclusive: 11.7 µM [inhibitor, single point]",
COCCCn1c(Cc2ccccc2)nnc1SCC(=O)N1CCCCC1,inactive,
CNc1nc2c(-c3ccc(Cl)cc3)nnn2c2ccccc12,inactive,
Cc1c(C)c2ccc(OCC(=O)N3CCN(c4ccc(F)cc4)CC3)c(C)c2oc1=O,"inconclusive: 18.5 µM [inhibitor, single point]",
CCC(CC)NC(=O)/C=C/c1cccc([N+](=O)[O-])c1,inactive,
CCCCN(C)CCNC(=O)CSCc1ccc(C)cc1,"inconclusive: 1.65 µM [inhibitor, partial curve, poor fit]",
Cc1ccc(S(=O)(=O)N2CC3CCCN3c3ccc(C(F)(F)F)cc32)cc1 (stereo unspecified),"inconclusive: 10.4 µM [inhibitor, single point]",
CC(C)(C)NC(=O)CN(C(=O)CNC(=O)c1cccs1)c1ccccc1F,inactive,
CC(C)C1=CC2=CCC3C(C)(C(=O)O)CCCC3(C)C2CC1 (stereo unspecified) (tested in a mixture with another compound),"inconclusive: 18.5 µM [inhibitor, single point]",
Cc1cc(C)n(-c2cc(C(C)(C)C)nc3c(-c4ccc(Cl)cc4)cnn23)n1,"inconclusive: 1.65 µM [inhibitor, full curve]",
C/C=C/c1cc(CN2CCN(c3ccc(OC)cc3)CC2)c(O)c(OC)c1,"inconclusive: 1.17 µM [inhibitor, partial curve, poor fit]",
CCOC(=O)c1ccc(Cn2cnc3ccccc3c2=O)cc1,active: 13.1 µM,
CC(C)C[C@H](NC(=O)OC(C)(C)C)C(=O)N[C@@H](CO)[C@H](O)[C@@H]1C[C@@H]1C(=O)NC1CC1,"inconclusive: 20.8 µM [inhibitor, partial curve, poor fit]",
CCOC(=O)c1ccc(S(=O)(=O)n2c(CN3CCCCC3)nc3ccccc32)cc1,,inactive: 2.98% [at 5.75 µM]
COc1cccc(CNC(=O)c2cc3oc4ccccc4c3n2C)c1OC,active: 9.28 µM,
COc1cccc(C(=O)NCC(=O)N/N=C(C)\C=C\c2ccccc2)c1,"inconclusive: 18.5 µM [inhibitor, single point]",

Structure (SMILES),Potency,"activity change, negative = inhibition"
O=C(COC(=O)c1ccccc1)Nc1cccc(S(=O)(=O)N2CCCCC2)c1,inactive,
O=C(NC1CCCCC1)N1CCNCC1,inactive,
O=c1[nH]c(SCc2ccccc2F)nc2ccccc12,inactive,
COc1cc(/C=N/NC(=O)COc2ccccc2C)ccc1OC(=O)c1cccs1,inactive,
COc1ccccc1CNC(=O)c1cc(C2CC2)nc2c1cnn2C(C)C,active: 0.738 µM,
COc1cc2c(cc1OC)-c1c(OC)c(OC)cc3c1[C@H](C2)N(C)CC3,active: 3.7 µM,
COC(=O)/C=C(\C)NC(=O)c1ccc(F)cc1,"inconclusive: 16.5 µM [inhibitor, single point]",
CCN(CC)S(=O)(=O)c1ccc(Cl)c(C(=O)NC(C)C(c2cccs2)N2CCCC2)c1 (stereo unspecified),"inconclusive: 18.5 µM [inhibitor, single point]",
COC(=O)CN=C1OC(=O)N2C(=O)C3=C4[C@@H](C[C@H]5C(=O)N(c6ccccc6)C(=O)[C@H]5[C@H]4[C@@]12Cc1ccccc1)[C@H]1C(=O)N(c2ccccc2)C(=O)[C@H]1[C@H]3C,"inconclusive: 9.28 µM [inhibitor, partial curve]",
Cc1c(Cl)cccc1NC(=O)CN1CCC(C(O)(c2ccccc2)c2ccccc2)CC1,"inconclusive: 4.15 µM [inhibitor, partial curve, poor fit]",
O=C(c1cccs1)N1CCN(Cc2cccc([N+](=O)[O-])c2)CC1,inactive,
O=C(CN1C(=O)C2CC=CCC2C1=O)Nc1ccc(Br)cc1 (stereo unspecified),inactive,
COc1ccc(CNCCc2c[nH]c3ccccc23)c(OC)c1C,active: 2.94 µM,
O=C(CN1CCCN(Cc2ccc(F)cc2Cl)C1=O)NC1CCCC1,"inconclusive: 13.1 µM [inhibitor, single point]",
COC(=O)c1cncn1C(C)c1ccccc1 (stereo unspecified),active: 2.08 µM,
O=C(CCC(=O)NNc1nc2ccccc2c2nc(-c3ccccc3)nn12)NCCCN1CCOCC1,"inconclusive: 10.4 µM [inhibitor, single point]",
CC(C)c1ccc(S(=O)(=O)N2CCN(C(=O)CCNC(=O)Nc3ccccc3)CC2)cc1,"inconclusive: 13.1 µM [inhibitor, single point]",
CC(C)C[C@H](NC(=O)c1nc[nH]c1C(=O)NCC(=O)OCc1ccccc1)C(=O)OCc1ccccc1,"inconclusive: 2.08 µM [inhibitor, full curve, poor fit]",
O=C(NC1CCCC1)C1CCN(S(=O)(=O)c2ccccc2)CC1,inactive,
CN(C(=O)CSc1nnc(-c2c[nH]c3ccccc23)n1C1CC1)C1CCS(=O)(=O)C1 (stereo unspecified),"inconclusive: 18.5 µM [inhibitor, single point]",
COc1ccc(CN2CCN(CCC(C)C)C(CCO)C2)cc1Cn1cncn1 (stereo unspecified),"inconclusive: 7.38 µM [inhibitor, partial curve, poor fit]",
c1ccc(CCN(Cc2ccccc2)Cc2nc(C3CC3)no2)cc1,"inconclusive: 18.5 µM [inhibitor, single point]",

# 14 structures already listed, sorted by formula weight, rising.
Structure (SMILES),Potency,"activity change, negative = inhibition"
COC(=O)C(c1ccccc1)C1CCCCN1 (stereo unspecified),"inconclusive: 2.69 µM [inhibitor, partial curve, poor fit]",
Cc1onc(-c2ccccc2)c1C(=O)N1CCCCCC1,"inconclusive: 16.5 µM [inhibitor, partial curve, poor fit]",
O=c1[nH]c(SCc2ccccc2F)nc2ccccc12,inactive,
CCOC(=O)c1ccc(Cn2cnc3ccccc3c2=O)cc1,active: 13.1 µM,
c1ccc(CCN(Cc2ccccc2)Cc2nc(C3CC3)no2)cc1,"inconclusive: 18.5 µM [inhibitor, single point]",
COc1cccc(C(=O)NCC(=O)N/N=C(C)\C=C\c2ccccc2)c1,"inconclusive: 18.5 µM [inhibitor, single point]",
O=C(CN1CCCN(Cc2ccc(F)cc2Cl)C1=O)NC1CCCC1,"inconclusive: 13.1 µM [inhibitor, single point]",
Cc1ccc(CNC(=O)C2CCN(S(=O)(=O)c3cccs3)CC2)cc1,inactive,
CC(C)(C)NC(=O)CN(C(=O)CNC(=O)c1cccs1)c1ccccc1F,inactive,
C/C(=N\NC(=O)c1ccccc1NC(=O)c1ccc(Cl)cc1)c1ccncc1,"inconclusive: 0.522 µM [inhibitor, full curve, poor fit]",
Cc1cc(=O)oc2cc(NC(=O)c3cc([N+](=O)[O-])ccc3N3CCOCC3)ccc12,"inconclusive: 0.104 µM [inhibitor, full curve, poor fit]",
COc1cc(/C=N/NC(=O)COc2ccccc2C)ccc1OC(=O)c1cccs1,inactive,
CC(C)C[C@H](NC(=O)OC(C)(C)C)C(=O)N[C@@H](CO)[C@H](O)[C@@H]1C[C@@H]1C(=O)NC1CC1,"inconclusive: 20.8 µM [inhibitor, partial curve, poor fit]",
O=C(CCC(=O)NNc1nc2ccccc2c2nc(-c3ccccc3)nn12)NCCCN1CCOCC1,"inconclusive: 10.4 µM [inhibitor, single point]",
